Source: patent US10086086B2, “Payload molecule delivery using molecular rebar” (Molecular Rebar Design, LLC, priority 2014, dated 2018)

Details: Example 8: room temperature

In the case of CCOP(=O)(Cc1ccc(OC)cc1)OCC [D4MBP], the “time to reach equilibrium concentration of adsorbed D4MBP” value is reported as 5 h.
